Laboratory results reported in the supplement of paper PMC10849652.
Some of the results follow.

Sequences of proteins named here, by UniProt entry; tags and fusion partners are left off. A change or cut given only in a name is not applied to a line headed by its entry.
UniProt Q2TB90: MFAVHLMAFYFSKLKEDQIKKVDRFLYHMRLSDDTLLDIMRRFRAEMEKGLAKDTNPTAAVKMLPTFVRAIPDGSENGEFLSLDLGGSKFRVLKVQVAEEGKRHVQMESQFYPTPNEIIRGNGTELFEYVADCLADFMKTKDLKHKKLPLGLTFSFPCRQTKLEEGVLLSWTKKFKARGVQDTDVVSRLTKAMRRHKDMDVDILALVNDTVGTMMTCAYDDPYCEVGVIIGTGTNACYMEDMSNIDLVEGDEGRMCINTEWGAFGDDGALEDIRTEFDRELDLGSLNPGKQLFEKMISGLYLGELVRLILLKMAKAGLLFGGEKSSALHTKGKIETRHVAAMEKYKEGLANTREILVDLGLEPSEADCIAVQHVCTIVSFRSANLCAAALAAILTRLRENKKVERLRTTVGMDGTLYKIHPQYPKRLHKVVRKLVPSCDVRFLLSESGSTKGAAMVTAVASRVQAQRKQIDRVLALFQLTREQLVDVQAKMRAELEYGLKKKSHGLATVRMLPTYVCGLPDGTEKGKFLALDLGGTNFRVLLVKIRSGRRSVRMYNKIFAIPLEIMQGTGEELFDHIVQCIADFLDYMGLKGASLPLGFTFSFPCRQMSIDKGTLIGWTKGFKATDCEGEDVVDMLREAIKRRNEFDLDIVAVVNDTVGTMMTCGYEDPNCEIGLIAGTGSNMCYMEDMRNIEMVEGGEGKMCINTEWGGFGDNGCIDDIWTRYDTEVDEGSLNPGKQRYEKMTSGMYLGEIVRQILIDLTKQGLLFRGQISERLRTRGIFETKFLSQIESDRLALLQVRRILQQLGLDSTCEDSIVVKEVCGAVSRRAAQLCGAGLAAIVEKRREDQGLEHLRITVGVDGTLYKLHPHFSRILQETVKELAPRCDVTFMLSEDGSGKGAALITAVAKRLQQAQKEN
UniProt Q9BUP3: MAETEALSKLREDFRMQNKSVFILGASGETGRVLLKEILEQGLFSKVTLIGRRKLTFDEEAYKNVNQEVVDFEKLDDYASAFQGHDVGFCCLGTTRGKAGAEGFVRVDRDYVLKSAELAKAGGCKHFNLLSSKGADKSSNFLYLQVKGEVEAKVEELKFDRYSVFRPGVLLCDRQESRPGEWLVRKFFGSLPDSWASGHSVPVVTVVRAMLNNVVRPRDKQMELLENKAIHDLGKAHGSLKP
UniProt Q8IWL3: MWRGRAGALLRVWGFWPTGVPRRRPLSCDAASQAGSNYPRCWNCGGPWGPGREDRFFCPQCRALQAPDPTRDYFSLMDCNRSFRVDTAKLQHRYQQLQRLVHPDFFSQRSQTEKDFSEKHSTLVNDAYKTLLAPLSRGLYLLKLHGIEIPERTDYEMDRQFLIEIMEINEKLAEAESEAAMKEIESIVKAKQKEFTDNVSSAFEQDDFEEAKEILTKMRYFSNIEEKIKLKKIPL
UniProt Q0VDF9: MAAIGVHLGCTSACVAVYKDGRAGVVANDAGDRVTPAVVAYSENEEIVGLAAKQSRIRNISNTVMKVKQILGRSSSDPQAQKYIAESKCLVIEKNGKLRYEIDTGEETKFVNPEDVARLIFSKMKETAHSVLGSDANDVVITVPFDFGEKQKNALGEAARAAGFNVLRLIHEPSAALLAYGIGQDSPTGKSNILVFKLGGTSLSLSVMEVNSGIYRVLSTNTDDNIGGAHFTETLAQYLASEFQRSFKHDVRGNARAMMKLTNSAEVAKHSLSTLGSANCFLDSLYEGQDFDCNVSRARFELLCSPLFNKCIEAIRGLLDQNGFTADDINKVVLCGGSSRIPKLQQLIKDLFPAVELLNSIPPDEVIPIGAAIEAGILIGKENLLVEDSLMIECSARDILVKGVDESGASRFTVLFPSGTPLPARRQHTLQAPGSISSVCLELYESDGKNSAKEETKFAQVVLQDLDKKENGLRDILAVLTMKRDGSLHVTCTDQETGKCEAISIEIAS
UniProt P17482: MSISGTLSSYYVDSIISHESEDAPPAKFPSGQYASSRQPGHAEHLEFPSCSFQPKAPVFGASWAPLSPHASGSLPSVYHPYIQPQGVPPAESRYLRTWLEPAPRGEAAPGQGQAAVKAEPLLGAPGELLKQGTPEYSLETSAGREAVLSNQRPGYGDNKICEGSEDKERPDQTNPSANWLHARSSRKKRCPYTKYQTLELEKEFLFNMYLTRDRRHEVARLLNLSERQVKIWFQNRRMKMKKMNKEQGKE
UniProt Q86YM7: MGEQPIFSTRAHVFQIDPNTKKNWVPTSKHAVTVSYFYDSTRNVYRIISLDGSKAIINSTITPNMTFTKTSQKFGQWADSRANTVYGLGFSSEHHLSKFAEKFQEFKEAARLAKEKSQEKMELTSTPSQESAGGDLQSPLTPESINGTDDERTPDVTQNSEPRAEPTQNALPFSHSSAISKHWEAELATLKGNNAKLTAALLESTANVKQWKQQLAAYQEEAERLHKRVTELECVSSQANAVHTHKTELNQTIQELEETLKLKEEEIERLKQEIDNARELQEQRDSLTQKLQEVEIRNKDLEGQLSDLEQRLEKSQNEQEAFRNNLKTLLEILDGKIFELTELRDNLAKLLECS
UniProt Q8TB92: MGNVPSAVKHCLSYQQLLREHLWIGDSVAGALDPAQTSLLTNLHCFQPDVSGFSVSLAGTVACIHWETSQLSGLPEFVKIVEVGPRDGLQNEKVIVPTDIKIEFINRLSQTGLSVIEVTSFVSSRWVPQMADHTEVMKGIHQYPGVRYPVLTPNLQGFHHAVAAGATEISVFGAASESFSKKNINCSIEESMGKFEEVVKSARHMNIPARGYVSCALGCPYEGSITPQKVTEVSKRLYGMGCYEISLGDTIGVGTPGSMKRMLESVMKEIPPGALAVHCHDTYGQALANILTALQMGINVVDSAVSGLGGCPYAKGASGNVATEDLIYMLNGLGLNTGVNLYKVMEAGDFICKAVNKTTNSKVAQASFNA
UniProt Q58FF6, whole entry, looked up: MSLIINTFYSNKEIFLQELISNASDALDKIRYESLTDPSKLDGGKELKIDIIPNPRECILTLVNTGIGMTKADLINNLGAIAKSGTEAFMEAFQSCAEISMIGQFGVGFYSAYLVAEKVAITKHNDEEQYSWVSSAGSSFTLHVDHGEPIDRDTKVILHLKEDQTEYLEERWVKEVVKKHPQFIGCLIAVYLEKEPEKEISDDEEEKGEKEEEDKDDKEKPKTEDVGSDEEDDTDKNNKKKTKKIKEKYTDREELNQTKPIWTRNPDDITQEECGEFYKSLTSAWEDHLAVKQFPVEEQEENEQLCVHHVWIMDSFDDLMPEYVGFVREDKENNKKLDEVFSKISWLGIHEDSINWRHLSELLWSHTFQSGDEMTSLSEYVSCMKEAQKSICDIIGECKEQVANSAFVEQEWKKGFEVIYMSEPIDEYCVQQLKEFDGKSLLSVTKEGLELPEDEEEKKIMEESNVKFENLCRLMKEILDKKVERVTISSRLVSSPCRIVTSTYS
UniProt P49773: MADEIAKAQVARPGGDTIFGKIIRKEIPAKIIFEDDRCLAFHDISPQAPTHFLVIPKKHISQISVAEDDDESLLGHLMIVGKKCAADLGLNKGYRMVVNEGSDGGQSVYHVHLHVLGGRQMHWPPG
UniProt P61604, whole entry, looked up: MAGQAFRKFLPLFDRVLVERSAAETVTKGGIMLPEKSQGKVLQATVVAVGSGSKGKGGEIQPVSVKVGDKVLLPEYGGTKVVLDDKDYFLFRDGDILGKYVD
UniProt Q9UMF0: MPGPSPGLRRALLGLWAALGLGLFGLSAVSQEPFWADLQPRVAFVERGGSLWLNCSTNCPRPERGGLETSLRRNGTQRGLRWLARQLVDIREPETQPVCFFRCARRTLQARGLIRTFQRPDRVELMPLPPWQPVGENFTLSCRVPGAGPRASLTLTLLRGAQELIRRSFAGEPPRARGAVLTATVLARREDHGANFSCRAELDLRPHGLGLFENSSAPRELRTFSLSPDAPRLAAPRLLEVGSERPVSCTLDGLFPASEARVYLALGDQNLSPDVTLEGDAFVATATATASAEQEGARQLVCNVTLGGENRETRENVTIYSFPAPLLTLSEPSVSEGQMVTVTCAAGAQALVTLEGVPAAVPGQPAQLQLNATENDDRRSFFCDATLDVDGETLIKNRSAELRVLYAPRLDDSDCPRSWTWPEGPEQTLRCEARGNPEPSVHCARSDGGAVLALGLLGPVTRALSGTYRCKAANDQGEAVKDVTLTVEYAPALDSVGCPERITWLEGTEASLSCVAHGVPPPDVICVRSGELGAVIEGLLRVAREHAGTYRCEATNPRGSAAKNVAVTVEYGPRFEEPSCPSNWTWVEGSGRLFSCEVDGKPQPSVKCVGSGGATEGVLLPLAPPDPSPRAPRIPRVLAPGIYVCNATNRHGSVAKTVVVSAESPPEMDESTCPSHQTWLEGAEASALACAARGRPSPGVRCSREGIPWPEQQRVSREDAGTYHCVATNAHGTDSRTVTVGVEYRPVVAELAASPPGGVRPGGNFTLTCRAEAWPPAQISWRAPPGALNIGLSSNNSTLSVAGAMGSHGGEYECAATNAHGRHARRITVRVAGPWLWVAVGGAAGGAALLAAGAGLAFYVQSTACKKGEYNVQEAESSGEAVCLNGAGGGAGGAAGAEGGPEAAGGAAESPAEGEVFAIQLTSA
UniProt Q13151: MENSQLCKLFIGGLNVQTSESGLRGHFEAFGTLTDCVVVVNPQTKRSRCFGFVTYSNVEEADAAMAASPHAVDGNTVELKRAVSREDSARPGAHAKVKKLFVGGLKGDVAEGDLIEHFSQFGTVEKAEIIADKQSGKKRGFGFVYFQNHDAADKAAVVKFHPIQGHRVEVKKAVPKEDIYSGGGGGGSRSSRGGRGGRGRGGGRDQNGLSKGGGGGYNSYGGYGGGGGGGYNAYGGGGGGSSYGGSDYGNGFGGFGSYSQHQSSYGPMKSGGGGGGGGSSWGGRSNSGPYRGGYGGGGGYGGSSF
UniProt P23327: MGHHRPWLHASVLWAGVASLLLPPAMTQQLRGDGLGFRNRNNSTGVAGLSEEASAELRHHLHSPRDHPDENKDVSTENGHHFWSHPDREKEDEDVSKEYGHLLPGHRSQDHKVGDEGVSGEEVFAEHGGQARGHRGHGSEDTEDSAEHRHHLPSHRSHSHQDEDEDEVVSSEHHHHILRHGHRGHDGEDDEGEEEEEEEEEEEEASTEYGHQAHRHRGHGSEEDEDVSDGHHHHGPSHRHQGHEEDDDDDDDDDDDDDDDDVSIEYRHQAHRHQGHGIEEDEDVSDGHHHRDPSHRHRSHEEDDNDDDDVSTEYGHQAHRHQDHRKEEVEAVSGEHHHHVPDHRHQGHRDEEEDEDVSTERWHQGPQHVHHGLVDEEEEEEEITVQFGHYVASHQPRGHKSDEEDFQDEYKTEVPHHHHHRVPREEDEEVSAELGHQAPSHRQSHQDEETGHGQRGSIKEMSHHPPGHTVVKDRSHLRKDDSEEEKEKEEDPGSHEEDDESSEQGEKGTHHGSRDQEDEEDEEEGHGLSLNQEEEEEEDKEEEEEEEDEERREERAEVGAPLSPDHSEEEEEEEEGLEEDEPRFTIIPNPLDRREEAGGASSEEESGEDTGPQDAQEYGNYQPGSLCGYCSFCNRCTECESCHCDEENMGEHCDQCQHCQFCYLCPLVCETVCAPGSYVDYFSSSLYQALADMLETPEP
UniProt P50747: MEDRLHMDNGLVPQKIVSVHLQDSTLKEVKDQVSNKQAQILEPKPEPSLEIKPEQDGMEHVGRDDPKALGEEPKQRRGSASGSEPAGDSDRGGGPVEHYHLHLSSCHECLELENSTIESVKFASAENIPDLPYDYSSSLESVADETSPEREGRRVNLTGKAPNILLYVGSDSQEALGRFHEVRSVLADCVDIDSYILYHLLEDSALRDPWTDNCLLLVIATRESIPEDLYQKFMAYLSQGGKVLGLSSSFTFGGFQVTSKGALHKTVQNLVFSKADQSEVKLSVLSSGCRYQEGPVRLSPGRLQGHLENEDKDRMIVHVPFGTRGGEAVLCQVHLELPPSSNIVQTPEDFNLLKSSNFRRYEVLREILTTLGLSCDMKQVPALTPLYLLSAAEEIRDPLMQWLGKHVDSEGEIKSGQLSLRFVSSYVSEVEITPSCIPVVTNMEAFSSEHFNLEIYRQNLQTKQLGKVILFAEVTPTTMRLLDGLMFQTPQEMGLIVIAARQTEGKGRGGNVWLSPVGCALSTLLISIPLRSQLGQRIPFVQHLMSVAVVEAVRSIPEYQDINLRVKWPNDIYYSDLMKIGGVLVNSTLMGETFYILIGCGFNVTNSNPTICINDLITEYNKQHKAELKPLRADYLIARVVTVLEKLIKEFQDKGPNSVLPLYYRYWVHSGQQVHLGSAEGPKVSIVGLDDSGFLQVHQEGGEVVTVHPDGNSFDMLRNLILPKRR

Columns and labels:
Test in all cases: log2 fold change, soluble protein after heating vs DMSO (PISA); higher = thermal stabilisation; K562 cells, 10 uM, 30 min; active = over 0.2 and 3.5 SD of the protein, either way, in both replicates (recomputed)
[1] = compound: CS(=O)(=O)c1ccc(-c2cnc(N)c(C(=O)Nc3ccccc3)n2)cc1
Summary of the method: (§1)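 Values are thermal stability changes relative to control samples and are taken from duplicates. They are stated as log2 fold changes. Before quantification by TMTpro 16plex LC-MS/MS with equalised channel sums, K562 cells at 2×10^6 cells/mL were treated with 10 μM compound for 30 min, heated in aliquots for 3 min across 48°C-58°C, pooled, extracted in PBS with 0.5% NP-40 at 4°C, and centrifuged at 21,000xg for 90 min to give the soluble supernatant.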

crizotinib = compound: C[C@@H](Oc1cc(-c2cnn(C3CCNCC3)c2)cnc1N)c1c(Cl)ccc(F)c1Cl [crizotinib]
Summary of the method: as §1

[2] = compound: C[C@@H]1COCCN1C2=NC(=NC(=C2)C3(CC3)S(=O)(=O)C)C4=C5C=CNC5=CC=C4
Summary of the method: as §1

[3] = compound: C[C@H](C1=CC=C(C=C1)C(=O)NC2=C3C=CNC3=NC=C2)N
Summary of the method: as §1

duvelisib = compound: C[C@H](Nc1ncnc2nc[nH]c12)c1cc2cccc(Cl)c2c(=O)n1-c1ccccc1 [duvelisib]
Summary of the method: as §1

gandotinib = compound: Cc1cc(Nc2cc(CN3CCOCC3)c3nc(C)c(Cc4ccc(Cl)cc4F)n3n2)n[nH]1 [gandotinib]
Summary of the method: as §1

tozasertib = compound: Cc1cc(Nc2cc(N3CCN(C)CC3)nc(Sc3ccc(NC(=O)C4CC4)cc3)n2)n[nH]1 [tozasertib]
Summary of the method: as §1

[4] = compound: Cc1cc(SCc2sc(-c3ccc(C(F)(F)F)cc3)nc2C)ccc1OCC(=O)O
Summary of the method: as §1

doramapimod = compound: Cc1ccc(-n2nc(C(C)(C)C)cc2NC(=O)Nc2ccc(OCCN3CCOCC3)c3ccccc23)cc1 [doramapimod]
Summary of the method: as §1

ispinesib = compound: Cc1ccc(C(=O)N(CCCN)[C@@H](c2nc3cc(Cl)ccc3c(=O)n2Cc2ccccc2)C(C)C)cc1 [ispinesib]
Summary of the method: as §1

bafetinib = compound: Cc1ccc(NC(=O)c2ccc(CN3CC[C@H](N(C)C)C3)c(C(F)(F)F)c2)cc1Nc1nccc(-c2cncnc2)n1 [bafetinib]
Summary of the method: as §1

[5] = compound: Cc1cccc(CC(=O)N2CCc3c2ccc(-c2cn(C)c4ncnc(N)c24)c3F)n1
Summary of the method: as §1

nilotinib = compound: Cc1cn(-c2cc(NC(=O)c3ccc(C)c(Nc4nccc(-c5cccnc5)n4)c3)cc(C(F)(F)F)c2)cn1 [nilotinib]
Summary of the method: as §1

[6] = compound: Cc1nc(Nc2n[nH]c3c2CN(C(=O)N[C@H](CN(C)C)c2ccccc2)C3(C)C)c2sccc2n1
Summary of the method: as §1

dasatinib = compound: Cc1nc(Nc2ncc(C(=O)Nc3c(C)cccc3Cl)s2)cc(N2CCN(CCO)CC2)n1 [dasatinib]
Summary of the method: as §1

[7] = compound: Cc1ncc(-c2ccnc(Nc3ccc(S(C)(=O)=O)cc3)n2)n1C(C)C
Summary of the method: as §1

[8] = compound: Cn1cc(-c2ccc3c(c2)CCN3C(=O)Cc2cccc(C(F)(F)F)c2)c2c(N)ncnc21
Summary of the method: as §1

[9] = compound: Cn1cc(-c2ccc3nnc(C(F)(F)c4ccc5ncccc5c4)n3n2)cn1
Summary of the method: as §1

tipifarnib = compound: Cn1cncc1[C@@](N)(c1ccc(Cl)cc1)c1ccc2c(c1)c(-c1cccc(Cl)c1)cc(=O)n2C [tipifarnib]
Summary of the method: as §1

mubritinib = compound: FC(F)(F)c1ccc(/C=C/c2nc(COc3ccc(CCCCn4ccnn4)cc3)co2)cc1 [mubritinib]
Summary of the method: as §1

Measured: log2 fold change

HKDC1 (UniProt Q2TB90)
inactive: [1] -0.034 | crizotinib 0.058 | [2] 0.066 | [3] -0.082 | duvelisib 0.103 | gandotinib -0.145 | tozasertib 0.022 | [4] -0.014 | doramapimod -0.019 | ispinesib 0.04 | bafetinib -0.11 | [5] 0.019 | nilotinib -0.171 | [6] -0.056 | dasatinib -0.036 | [7] -0.028 | [8] 0.019 | [9] 0.032 | tipifarnib 0.037 | mubritinib 0.107

HTATIP2 isoform 3 (UniProt Q9BUP3)
inactive: [1] 0.014 | crizotinib -0.106 | [2] 0.023 | [3] -0.145 | gandotinib 0.003 | [4] 0.027 | doramapimod 0.003 | ispinesib -0.111 | bafetinib -0.143 | [5] -0.016 | nilotinib 0.116 | [6] -0.056 | dasatinib -0.046 | [7] -0.002 | [8] 0.031 | [9] 0.067 | tipifarnib 0.106 | mubritinib -0.063
active: duvelisib 0.294

HSCB (UniProt Q8IWL3)
inactive: [1] 0.081 | crizotinib -0.022 | [2] -0.006 | [3] -0.074 | duvelisib 0.068 | gandotinib -0.001 | tozasertib 0.036 | [4] -0.048 | doramapimod 0.082 | ispinesib -0.015 | [5] 0.034 | nilotinib 0.169 | [6] -0.046 | dasatinib -0.059 | [7] 0.005 | [8] 0.07 | [9] -0.069 | tipifarnib -0.023 | mubritinib -0.123

HSPA14 (UniProt Q0VDF9)
inactive: [1] 0 | crizotinib -0.084 | [2] -0.034 | [3] 0.143 | duvelisib -0.013 | gandotinib -0.042 | tozasertib -0.001 | [4] 0.083 | doramapimod 0.091 | ispinesib -0.136 | bafetinib 0.012 | [5] 0.029 | nilotinib -0.138 | [6] -0.071 | dasatinib -0.127 | [7] 0.006 | [8] 0.013 | [9] -0.046 | tipifarnib -0.113 | mubritinib -0.058

HOXB9 (UniProt P17482)
inactive: [1] -0.015 | crizotinib -0.036 | [2] 0.067 | [3] -0.033 | duvelisib -0.003 | tozasertib 0.093 | [4] 0.023 | doramapimod 0.007 | ispinesib -0.041 | bafetinib -0.146 | nilotinib 0.006 | [6] -0.041 | dasatinib -0.039 | [7] -0.056 | [8] -0.015 | [9] 0.027 | tipifarnib 0.003 | mubritinib 0.048

HOMER1 (UniProt Q86YM7)
inactive: [1] -0.011 | crizotinib -0.015 | [2] 0.071 | [3] -0.014 | gandotinib -0.068 | [4] -0.002 | doramapimod 0.027 | ispinesib 0.083 | bafetinib -0.016 | [5] -0.002 | nilotinib -0.02 | [6] 0.046 | dasatinib -0.054 | [7] -0.008 | [8] 0.003 | [9] 0.117 | tipifarnib -0.031 | mubritinib 0.089

Reprinted from the results shown (2 entries):
HTATIP2 isoform 3 (UniProt Q9BUP3)
inactive: [1] 0.014 | crizotinib -0.106 | [2] 0.023 | [3] -0.145 | gandotinib 0.003 | [4] 0.027 | doramapimod 0.003 | ispinesib -0.111 | bafetinib -0.143 | [5] -0.016 | nilotinib 0.116 | [6] -0.056 | dasatinib -0.046 | [7] -0.002 | [8] 0.031 | [9] 0.067 | tipifarnib 0.106 | mubritinib -0.063
active: duvelisib 0.294

HSCB (UniProt Q8IWL3)
inactive: [1] 0.081 | crizotinib -0.022 | [2] -0.006 | [3] -0.074 | duvelisib 0.068 | gandotinib -0.001 | tozasertib 0.036 | [4] -0.048 | doramapimod 0.082 | ispinesib -0.015 | [5] 0.034 | nilotinib 0.169 | [6] -0.046 | dasatinib -0.059 | [7] 0.005 | [8] 0.07 | [9] -0.069 | tipifarnib -0.023 | mubritinib -0.123

(cont.)

HMGCLL1 (UniProt Q8TB92)
inactive: [1] 0.016 | crizotinib -0.113 | [2] 0.111 | [3] -0.001 | duvelisib 0.16 | gandotinib -0.065 | tozasertib 0.039 | [4] 0.008 | doramapimod 0.05 | bafetinib -0.118 | [5] -0.032 | nilotinib -0.035 | [6] -0.058 | dasatinib -0.064 | [7] -0.011 | [8] 0.069 | mubritinib 0.083

HSP90AB4P (UniProt Q58FF6)
inactive: [1] 0.05 | crizotinib -0.081 | [2] 0.035 | [3] -0.045 | duvelisib 0.074 | tozasertib -0.126 | [4] -0.114 | doramapimod 0.122 | bafetinib 0.09 | nilotinib -0.262 | [6] -0.052 | dasatinib -0.077 | [7] -0.168 | [8] -0.018 | mubritinib 0.023

HINT1 (UniProt P49773)
inactive: [1] 0.033 | crizotinib 0.082 | [2] 0.16 | [3] -0.148 | duvelisib 0.112 | gandotinib 0.008 | tozasertib 0.053 | [4] -0.029 | doramapimod -0.085 | ispinesib 0.13 | bafetinib -0.006 | [5] 0.007 | nilotinib 0.091 | [6] 0.004 | dasatinib 0.081 | [7] -0.036 | [8] 0.059 | [9] 0.188 | tipifarnib -0.075 | mubritinib 0.079

HPCAL1 (UniProt P37235)
inactive: [1] 0.015 | crizotinib 0.011 | [2] 0.08 | [3] -0.047 | gandotinib -0.033 | [4] -0.014 | doramapimod -0.027 | ispinesib -0.054 | bafetinib -0.09 | [5] 0.027 | nilotinib -0.076 | [6] 0.033 | dasatinib -0.031 | [7] -0.028 | [8] -0.011 | [9] 0.053 | tipifarnib -0.032 | mubritinib 0.016

HSPE1 (UniProt P61604)
inactive: [1] 0.03 | crizotinib 0.111 | [2] 0.04 | [3] -0.075 | duvelisib 0.053 | gandotinib 0.018 | tozasertib -0.027 | [4] -0.031 | doramapimod 0.001 | ispinesib 0.025 | bafetinib -0.069 | [5] -0.038 | nilotinib 0.013 | [6] 0.032 | dasatinib 0.057 | [7] -0.027 | [8] 0.066 | [9] 0.113 | tipifarnib -0.022 | mubritinib 0.02

ICAM5 (UniProt Q9UMF0)
inactive: [1] -0.052 | crizotinib 0.177 | [2] 0.078 | [3] -0.053 | duvelisib 0.233 | tozasertib -0.068 | [4] -0.133 | doramapimod -0.006 | ispinesib -0.134 | bafetinib -0.109 | nilotinib -0.094 | [6] -0.023 | dasatinib 0.017 | [7] 0.047 | [8] 0.064 | [9] -0.227 | mubritinib -0.063

HNRNPA0 (UniProt Q13151)
inactive: [1] -0.113 | crizotinib -0.095 | [2] 0.057 | [3] 0.343 | duvelisib -0.009 | gandotinib 0.175 | tozasertib 0.027 | [4] 0.016 | doramapimod 0.077 | bafetinib 0.118 | [5] -0.104 | nilotinib -0.086 | [6] 0.1 | dasatinib 0.054 | [7] 0.064 | [8] -0.104 | tipifarnib -0.012 | mubritinib -0.103

HRC (UniProt P23327)
active: [2] -0.342
inactive: [1] 0.027 | crizotinib 0.096 | [3] 0.012 | gandotinib 0.064 | [4] -0.033 | doramapimod -0.033 | ispinesib 0.037 | bafetinib -0.098 | [5] -0.147 | nilotinib 0.01 | [6] -0.017 | dasatinib 0.055 | [7] -0.039 | [8] -0.038 | [9] 0.037 | tipifarnib 0.016 | mubritinib 0.041

HUWE1, A0A087X1S3
inactive: [1] 0.028 | crizotinib -0.282 | [2] -0.092 | [3] -0.053 | duvelisib -0.078 | gandotinib 0 | tozasertib -0.03 | [4] 0.107 | doramapimod 0.02 | bafetinib 0.029 | [5] 0.085 | dasatinib -0.087 | [8] -0.079

HLCS (UniProt P50747)
inactive: [1] 0.032 | crizotinib 0.037 | [2] 0.033 | [3] -0.05 | duvelisib -0.002 | gandotinib -0.028 | tozasertib 0.041 | [4] 0.022 | doramapimod -0.008 | ispinesib 0.033 | bafetinib -0.076 | [5] -0.005 | nilotinib -0.014 | [6] -0.015 | dasatinib -0.022 | [7] 0.016 | [8] -0.03 | [9] -0.038 | tipifarnib -0.112 | mubritinib 0.012

HNRNPH1 (UniProt P31943)
inactive: [1] 0.027 | crizotinib -0.171 | [2] -0.012 | [3] 0.02 | gandotinib -0.017 | [4] 0.126 | doramapimod -0.012 | ispinesib -0.068 | bafetinib 0.004 | [5] 0.037 | nilotinib -0.141 | [6] -0.236 | dasatinib -0.083 | [7] -0.116 | [8] 0.022 | [9] 0.055 | tipifarnib -0.124 | mubritinib -0.044
